Assay results taken from PMC8665757.
No constants are given. Whether binding was seen depends on the method and setting. Binding calls can cover weak binding; strength is not graded here.

By UniProt entry, the sequences of proteins in these tests, tags left out. Residues count along the entry.
UniProt P02768, residues 25-609: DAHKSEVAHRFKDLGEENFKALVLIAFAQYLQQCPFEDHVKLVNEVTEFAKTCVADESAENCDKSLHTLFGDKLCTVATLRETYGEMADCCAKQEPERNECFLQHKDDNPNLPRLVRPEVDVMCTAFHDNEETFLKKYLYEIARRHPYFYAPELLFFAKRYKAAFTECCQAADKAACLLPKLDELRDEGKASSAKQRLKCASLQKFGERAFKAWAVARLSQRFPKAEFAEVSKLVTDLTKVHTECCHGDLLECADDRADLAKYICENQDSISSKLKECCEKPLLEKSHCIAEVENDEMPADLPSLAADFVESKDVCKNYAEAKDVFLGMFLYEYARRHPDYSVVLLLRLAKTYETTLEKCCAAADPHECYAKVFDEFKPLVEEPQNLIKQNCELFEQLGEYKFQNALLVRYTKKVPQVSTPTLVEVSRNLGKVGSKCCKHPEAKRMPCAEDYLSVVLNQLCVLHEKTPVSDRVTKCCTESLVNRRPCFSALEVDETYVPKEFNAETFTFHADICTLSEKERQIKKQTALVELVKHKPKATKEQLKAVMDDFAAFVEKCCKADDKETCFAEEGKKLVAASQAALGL

Molecular target: Streptococcus pyogenes M1 protein (Streptococcus pyogenes) (UniProt Q99XV0)
Assay: cross-linking; chemical cross-linking with tandem MS (MS/MS) of samples from recombinant M1 protein and purified human plasma fibrinogen and albumin; cross-links (XLs) detected with the Cheetah-MS web server; both purified

In the case of “human plasma albumin (from UniProt P02768 25-609)”, the binding is reported as “binds”.
